Experimental data as given in paper PMC7819943, “Rice protein-binding microarrays: a tool to detect cis-acting elements near promoter regions in rice”.
The other results are listed elsewhere or left out.

Protein sequences, listed by entry. Tags and fused reporters are not part of them.
UniProt Q0JBA9, entry or part of it: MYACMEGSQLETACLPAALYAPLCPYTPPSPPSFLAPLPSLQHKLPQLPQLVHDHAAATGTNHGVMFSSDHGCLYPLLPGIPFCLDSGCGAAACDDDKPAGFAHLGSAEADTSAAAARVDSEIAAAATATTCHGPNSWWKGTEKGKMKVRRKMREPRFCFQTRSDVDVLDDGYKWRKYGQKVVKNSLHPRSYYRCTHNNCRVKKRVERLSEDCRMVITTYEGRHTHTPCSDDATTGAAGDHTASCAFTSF

The sequences below were run against OsWRKY34 (Oryza sativa, UniProt Q0JBA9 1-250) (assay: protein-binding microarray (RPBM); PBS, 2% BSA, 51.3 ng/ul salmon testes DNA, 50 uM zinc acetate, 200 nM TF, 25 C, 1 h; high values mean tight binding). Settings: protein: recombinant; tags: N-terminal polyhistidine and DsRed monomer fusion (pET32a); label: CyDye5-dUTP incorporated in the synthesized complementary strand; 3' TTTTT single-stranded linker to array surface; dsDNA, one strand shown.
Outline: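 A custom Agilent array was converted to double-stranded form by primer extension with Cy5-dUTP and blocked with 2% BSA. Protein at 200 nM in PBS with 2% BSA, salmon testes DNA and 50 µM zinc acetate was applied for 1 h at 25 °C, followed by washing. The proteins were polyhistidine–DsRed N-terminal fusions of transcription factors, expressed in E. coli BL21-CodonPlus and Ni–NTA-purified. The binding signal is per-feature fluorescence intensity (arbitrary units) from an Axon 4000B scanner.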

Sequence	binding signal
GCATTTTACAGGTTTTCTCGGCCACATACTGTCATAGGAACGGAGTCACCTAGTGCAG	10500 fluorescence intensity (a.u.)
CATATGTTTACACCCAAATTTGGCACCTAGGATTAAAATACGGAGTCACCTAGTGCAG	8350 fluorescence intensity (a.u.)
CTACCTCCTTTCTAAATTAGTGGTCGTTTTGACTTTCTTCCGGAGTCACCTAGTGCAG	11200 fluorescence intensity (a.u.)
TAGGCTATCTTTTGAAGGGAGGGGTTTTTTCATCACCTATCGGAGTCACCTAGTGCAG	17000 fluorescence intensity (a.u.)
TAAATTGCATCATGCCGGTGTCATTTGTTTCTTTGCTGCCCGGAGTCACCTAGTGCAG	8870 fluorescence intensity (a.u.)
TTGAATAAGACGAATGGTCAAACATGTGAGAAAAAGTCAACGGAGTCACCTAGTGCAG	8150 fluorescence intensity (a.u.)
TCATCTACTTCTCCGATCTCAATCATAACACACCTCAATCCGGAGTCACCTAGTGCAG	9140 fluorescence intensity (a.u.)
AACCAGCTCTGTTTGACGGTTTCCTGCCGCAGTTGCCGACCGGAGTCACCTAGTGCAG	8520 fluorescence intensity (a.u.)
ATCTTTGATATTGTCATGCTATCTCAATTCTCGAGTCCTCCGGAGTCACCTAGTGCAG	9280 fluorescence intensity (a.u.)
ATCCTTTTCTTTGGCAGTCCTTGATCCCAGATCCACATTTCGGAGTCACCTAGTGCAG	9820 fluorescence intensity (a.u.)
CACAACAACCACAACAACAACAAAAAGCTCTCACCTTTCACGGAGTCACCTAGTGCAG	8280 fluorescence intensity (a.u.)
GATAGAGTGTTTTCATTCAGTTGCTTCGAGTTTGGAAGAACGGAGTCACCTAGTGCAG	8400 fluorescence intensity (a.u.)
GGCGCGCAAAACAGCGACCTCCACACACCCTCGCAAACTCCGGAGTCACCTAGTGCAG	8400 fluorescence intensity (a.u.)
CCCTTCTTGAATATTCAGGCTTTTCACCGGATTCGGAATTCGGAGTCACCTAGTGCAG	9010 fluorescence intensity (a.u.)
CAGTTATTGATAGATATATACATTACGTCCCTTTTTTTAACGGAGTCACCTAGTGCAG	8400 fluorescence intensity (a.u.)
CCACTTTATTCTTTTCATACCAATGTCTTCTTATCTGTATCGGAGTCACCTAGTGCAG	8320 fluorescence intensity (a.u.)
GCTCATGCCGGTATGTCTGTTCCTGCCTCCTCCAAAATTTCGGAGTCACCTAGTGCAG	8810 fluorescence intensity (a.u.)
TGCATACGTCTTAACCTAACCATCTACGAAAATAGGCCTACGGAGTCACCTAGTGCAG	9490 fluorescence intensity (a.u.)
GATTAGCCATAAGTACTGCTACAGTAACCCACATATGCTACGGAGTCACCTAGTGCAG	8450 fluorescence intensity (a.u.)
TGGTATTCTTTTGGGTGTTTCAGCAAATACTATATTTTTTCGGAGTCACCTAGTGCAG	8640 fluorescence intensity (a.u.)
TCTAAAGTGTTTCATTCATTTCTATGTTTGTTTTTTATGGCGGAGTCACCTAGTGCAG	9260 fluorescence intensity (a.u.)

3 entries from above, in markdown.

| Sequence | binding signal |
| --- | --- |
| CATATGTTTACACCCAAATTTGGCACCTAGGATTAAAATACGGAGTCACCTAGTGCAG | 8350 fluorescence intensity (a.u.) |
| TAGGCTATCTTTTGAAGGGAGGGGTTTTTTCATCACCTATCGGAGTCACCTAGTGCAG | 17000 fluorescence intensity (a.u.) |
| TCTAAAGTGTTTCATTCATTTCTATGTTTGTTTTTTATGGCGGAGTCACCTAGTGCAG | 9260 fluorescence intensity (a.u.) |

Going on with the list:

Sequence	binding signal
ATCCCCACGCTTCCATTCCATCCATCTCTCTCGCTCTCTCCGGAGTCACCTAGTGCAG	8770 fluorescence intensity (a.u.)
CCTTCTTGGGGAATGCTTTTCTATGTGGGTTTCCTTTACACGGAGTCACCTAGTGCAG	10400 fluorescence intensity (a.u.)
ATACTTTCTCTATTTTTAAATACTTATACCGTTCACTTCTCGGAGTCACCTAGTGCAG	10100 fluorescence intensity (a.u.)
CCTCGTCCTCCGCCATCGACCATGACCGTGCTTCGTCATGCGGAGTCACCTAGTGCAG	9770 fluorescence intensity (a.u.)
CGAACCTCGACGCCTGCATCCGCATCCGCCTCCGCCTCCGCGGAGTCACCTAGTGCAG	8050 fluorescence intensity (a.u.)
CTCTACTCTTGATTTCTCACTCTTCTATAGATCTTTAATTCGGAGTCACCTAGTGCAG	10800 fluorescence intensity (a.u.)
GAAATTCACCACAAATCACCAATCTGCCACGGCCCGCGCGCGGAGTCACCTAGTGCAG	10500 fluorescence intensity (a.u.)
GTAGCAGACCAGCACACCCACATATATACACACGCACACACGGAGTCACCTAGTGCAG	8630 fluorescence intensity (a.u.)
AGCTGAGGGGCGGCGGCGGCTGGCAAGGGGCGGCGGCGGCCGGAGTCACCTAGTGCAG	10900 fluorescence intensity (a.u.)
GTTCGTTGTTCTATCGCTCACCCGCGCTTCAGGTCATTTACGGAGTCACCTAGTGCAG	13200 fluorescence intensity (a.u.)
TCCCCACCTATCGTTGCTTCTCACAGCTAGATCCGGCAAACGGAGTCACCTAGTGCAG	8840 fluorescence intensity (a.u.)
TGGATTCTTAACTCAAACCTGCCGCTGGTTTCCGCGCGCGCGGAGTCACCTAGTGCAG	8710 fluorescence intensity (a.u.)
GTTTTTTTTTAAGCACGTTTTAAACACGAAAGTCTTTCTTCGGAGTCACCTAGTGCAG	8330 fluorescence intensity (a.u.)
TGTCTCTTTCGTTGATAGTCCTGATAGTCCTGGATACTCGCGGAGTCACCTAGTGCAG	8510 fluorescence intensity (a.u.)
TCGCTGCCCGCTGTCCCGTCCTCGAGTCGCCACCTGCCACCGGAGTCACCTAGTGCAG	9950 fluorescence intensity (a.u.)
AATTGGAGAAGTTGACTTTTCTGACAGCCCTTGTGTGTACCGGAGTCACCTAGTGCAG	10200 fluorescence intensity (a.u.)
ATCATTCCTAACTGCCTGGTCGTACTTCTCTGTATTTTGTCGGAGTCACCTAGTGCAG	17500 fluorescence intensity (a.u.)
TTCCACATACATCCATCCTGATCCTTCCTTGCCGCACACACGGAGTCACCTAGTGCAG	10700 fluorescence intensity (a.u.)
AGAGCAGCAGCCCATCATTTGTTCGATCCAATTCCCATCCCGGAGTCACCTAGTGCAG	9130 fluorescence intensity (a.u.)
CGCCTTGAAGCTCCCGTTGCTGCTGGTACATATATACACACGGAGTCACCTAGTGCAG	8630 fluorescence intensity (a.u.)
GTTAATGCTAGTATACATCTGTAATGTCATGATTTATTTACGGAGTCACCTAGTGCAG	8610 fluorescence intensity (a.u.)
